The values that follow come from paper PMC9485057.

No constants are given. Whether binding was seen depends on the method and setting. In cells and extracts the contact can be indirect. These calls come from enrichment with a bait or labelling near it, and not all partners need be listed. Sequences can lack the tags named with a protein.

The target in this assay is T1, Skp1-myc (C-terminally myc-tagged Skp1B) (D. discoideum) (UniProt Q557E4).
T1 sequence: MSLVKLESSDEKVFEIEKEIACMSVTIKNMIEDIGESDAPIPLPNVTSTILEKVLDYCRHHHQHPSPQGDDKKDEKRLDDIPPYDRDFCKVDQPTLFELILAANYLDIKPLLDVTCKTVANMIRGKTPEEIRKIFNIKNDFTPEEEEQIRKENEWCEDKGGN
The experiment in a line: affinity purification with mass spectrometry; Skp1-myc captured with anti-c-myc (mAb 9E10) magnetic beads from S21 lysate of vegetative cells (250 mM NaCl, 50 mM Tris-HCl pH 8.0, 0.2% NP-40), 4 °C 1 h; control: untagged strain; label-free nLC-MS/MS.

B1: CulE (protein, UniProt Q54XF7 1-750)
chain: MSDQITVDELWAECEQTFEDLFLNLKKGLSRKRYMEIYTKIYNYCSSANEKALIDFYIPKVKVLVAQKAVEIMSRSESYPNDALLLFFRNQWNEWKMSSNVLKNLLSPVNKIHSSDKKTTSSSANQNESVVYSDTLNSWRETAFNPLKNKLSVSLLQIIKNDRTGFSTNLQVLSDSLECYVQLGPEKNKLEIYQSCFEQQFLQETETFYKAESADFIEKNGVCEYMRHVYNRIEQETNRVNQYMPISTLEKLTKILNNVLISNYKEQFASKFLDILIEDKSSDLVMMYSLLSRVNHLTPLKNIFSDFIKSEGLKEIESNLKEAQEKPQVLISILLKIYSRFNIMIKECYGNDTDFTTAMDKSFSILVNENPASYDPKKKESNIPVVLSKFCDQILRKGPHHISDEAELEKKLTEAVCLFKYLPDKDIFMLNYQKMLSKRLVEDLSASEDAETLMINKLKNYQGFDYCTKLTRMITDMRLCKDININFQNHLNEKSLTLPYQFNFYVLTNGSWTLTNKQTATPFKPPSEMLSSITYFESFYKKSYQGRVLTFLYDFSRADVDSRQAKGKIYKLTTTAYQMAILLMFNGADKITRFLINDTIGLDETSIRLPLLALIKTGIIECSEPSFKNWNNDTEFTVNSKFSSKKMKVSCNIAVQIGETKQSEGQQTVSEQEIEKERFFKLQAAIVRIMKSKKTMTHNDLTVETTTQVSKWFTPKITAIKKAIEYLIDQEYIRRTTDDNPSARKYEYMA
In the case of B1, the binding result is listed as “binds”.

B2: CulA (protein, UniProt O60999 1-770)
chain: MSMMTSTPTKRSVKLDDIWPELEEGIYKIITDLNKGFPKQKWIALYTHVYDYCAASQSKSSAKVGMPKQQASGANYVGEDLYNRLNLFLKKHMSQLLKLTETKMDEPLLNYYYTEWDRYTSAMKYINNIFQYMNRYWIKREIDDGKKEVYEIFILSLVIWRDCLFTPLKQRLTNSLLDIIESERNGYQINTHLIKGVINGYVSLGLNREKPKETILQVYKSGFEELFLTATENYYTNESAKFISENSVADYMKKVETRLNEEVKRVQQYLHQNTESELIAKCEKVLIEKHVEVIWNEFQTLLEKDKIPDLTRMYSLLSRIPRGLEPLRTTLEKHVQNVGLQAVSSIATNGVIEPKVYIETLLKVFKKYNELVTGAFRSDTGFVASLDKACRRFINENAVTIAAKSSSKSPELLARFTDFLLKKSPNNPEESEMEQLLNDVMIVFKYIEDKDVFQDFYSKMLAKRLIHGTSTSEDLEGTMIGKLKSTCGYEYTSKLQRMFTDMSLSRELLDRFNNHIEQVERSSLNIDFSVLVLATGSWPLQPPSTNFSIPKELQACEQLFQKFYQNQHSGRKLNWLHHLSKGELKTKYLQTSKSGYTLQCSTYQIGVLLQFNQYETLTSEEIQESTQLIDSVLKGTLTSLAKSKILLADPPLDDEEIAKTTKFSLNKQFKNKKTKIFINVPVLTQVKEEIDSIHKTVEEDRKLQIQAAIVRIMKMRKQLAHSGLMTEVISQLQTRFNPKVNIIKKCIDILIEKEYLMRVEGKKDHYSYVA
Take B2: the binding entry is on record as “binds”.
